# Results taken from article PMC8384837.
# Positions count from the first letter of the chain named. The list shows a part of the results. For part of these data: At the low end of the ranking, values are background and their order means little. For part of these data: The exact form of the protein is not confirmed.
# Columns and labels:
# Conditions in all cases: yeast three-hybrid, YBZ-1, SC-Leu-His + 0.5 mM 3-AT, 4 days
# [1] = target: T1, PUM1 PUF domain R3-THE R4-TFR C935T + R936H + Q939E + N971T + H972F + Q975R (UniProt Q14671)
# T1 sequence: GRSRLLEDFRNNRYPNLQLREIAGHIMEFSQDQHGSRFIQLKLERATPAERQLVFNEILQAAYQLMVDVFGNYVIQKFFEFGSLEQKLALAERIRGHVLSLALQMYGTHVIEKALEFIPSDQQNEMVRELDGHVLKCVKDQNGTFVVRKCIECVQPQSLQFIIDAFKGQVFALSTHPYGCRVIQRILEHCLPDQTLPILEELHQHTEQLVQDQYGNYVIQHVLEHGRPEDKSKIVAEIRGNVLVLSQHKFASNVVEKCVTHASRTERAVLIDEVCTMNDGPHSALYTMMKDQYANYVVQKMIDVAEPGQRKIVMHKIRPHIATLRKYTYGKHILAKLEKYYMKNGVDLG
# [2] = target: T2, PUM1 PUF domain R3-THE R4-TFR R7-NPG C935T + R936H + Q939E + N971T + H972F + Q975R + S1079N + N1080P + E1083G (Homo sapiens) (UniProt Q14671)
# T2 sequence: T1 sequence with S252N, N253P, E256G
# [3] = target: T3, PUM1 PUF domain R5-PHQ R6-SWD C1007P + R1008H + N1043S + Y1044W + Q1047D (UniProt Q14671)
# T3 sequence: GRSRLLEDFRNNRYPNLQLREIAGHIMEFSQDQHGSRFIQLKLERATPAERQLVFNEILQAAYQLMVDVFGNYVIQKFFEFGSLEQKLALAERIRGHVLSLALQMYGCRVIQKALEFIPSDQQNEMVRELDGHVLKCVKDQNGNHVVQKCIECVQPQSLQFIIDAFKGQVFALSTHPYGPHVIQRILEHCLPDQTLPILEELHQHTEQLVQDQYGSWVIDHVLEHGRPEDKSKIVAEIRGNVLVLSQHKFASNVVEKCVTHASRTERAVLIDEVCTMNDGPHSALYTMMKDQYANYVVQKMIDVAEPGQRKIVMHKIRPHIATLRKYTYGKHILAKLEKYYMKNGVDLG
# [4] = target: T4, PUM1 PUF domain R3-THE R4-TFR R7-NPG C935T + R936H + Q939E + N971T + H972F + Q975R + S1079N + N1080P + E1083G (UniProt Q14671)
# T4 sequence: T1 sequence with S252N, N253P, E256G
Sequence,binding signal (log2 enrichment (interaction score)) [1],binding signal (log2 enrichment (interaction score)) [2],binding signal (log2 enrichment (interaction score)) [3],binding signal (log2 enrichment (interaction score)) [4]
GGCUAGAACUAGUGGAUCCCCCGGCGCCCGGCGGCUCGAGCCCGGGUAAGCUGACGUCGUCUGCAUGCCGCCGGGCGCCAUGCCUGCAGGUCGACUCUAGAAAACAUG,-6.25,< -0.35,,
GGCUAGAACUAGUGGAUCCCCCGGCGCCCGGCGGCUCGAGCCCGGGUAAGUAGACGGAGUCUGCAUGCCGCCGGGCGCCAUGCCUGCAGGUCGACUCUAGAAAACAUG,-6.71,-1.89,-8.9,
GGCUAGAACUAGUGGAUCCCCCGGCGCCCGGCGGCUCGAGCCCGGGUAAGUAAUCAUAGUCUGCAUGCCGCCGGGCGCCAUGCCUGCAGGUCGACUCUAGAAAACAUG,-7.65,,,
GGCUAGAACUAGUGGAUCCCCCGGCGCCCGGCGGCUCGAGCCCGGGUAAGGUGAUGAAGUCUGCAUGCCGCCGGGCGCCAUGCCUGCAGGUCGACUCUAGAAAACAUG,-7.26,-1.07,,
GGCUAGAACUAGUGGAUCCCCCGGCGCCCGGCGGCUCGAGCCCGGGUAAGUGUACGCAGUCUGCAUGCCGCCGGGCGCCAUGCCUGCAGGUCGACUCUAGAAAACAUG,-2.5,,-7.77,
GGCUAGAACUAGUGGAUCCCCCGGCGCCCGGCGGCUCGAGCCCGGGUAAGUACUCAUAGUCUGCAUGCCGCCGGGCGCCAUGCCUGCAGGUCGACUCUAGAAAACAUG,-6.07,,-7.05,
GGCUAGAACUAGUGGAUCCCCCGGCGCCCGGCGGCUCGAGCCCGGGUAAGUGCACGAAGUCUGCAUGCCGCCGGGCGCCAUGCCUGCAGGUCGACUCUAGAAAACAUG,-7.84,,< -7.28,
GGCUAGAACUAGUGGAUCCCCCGGCGCCCGGCGGCUCGAGCCCGGGUAAGUUGAUUUAGUCUGCAUGCCGCCGGGCGCCAUGCCUGCAGGUCGACUCUAGAAAACAUG,-5.71,,-7.62,
GGCUAGAACUAGUGGAUCCCCCGGCGCCCGGCGGCUCGAGCCCGGGUAAGUGUUCACAGUCUGCAUGCCGCCGGGCGCCAUGCCUGCAGGUCGACUCUAGAAAACAUG,-6.6,,-7.09,-2.81
GGCUAGAACUAGUGGAUCCCCCGGCGCCCGGCGGCUCGAGCCCGGGUAAGUUGAUGUUGUCUGCAUGCCGCCGGGCGCCAUGCCUGCAGGUCGACUCUAGAAAACAUG,< -6.97,,-8.28,
GGCUAGAACUAGUGGAUCCCCCGGCGCCCGGCGGCUCGAGCCCGGGUAAGUCGAAAGAGUCUGCAUGCCGCCGGGCGCCAUGCCUGCAGGUCGACUCUAGAAAACAUG,-7.29,,< -7.33,
GGCUAGAACUAGUGGAUCCCCCGGCGCCCGGCGGCUCGAGCCCGGGUAAGUGCUCGUAGUCUGCAUGCCGCCGGGCGCCAUGCCUGCAGGUCGACUCUAGAAAACAUG,-6.09,,< -7.11,-2.54
GGCUAGAACUAGUGGAUCCCCCGGCGCCCGGCGGCUCGAGCCCGGGUAAGUGUAACAUGUCUGCAUGCCGCCGGGCGCCAUGCCUGCAGGUCGACUCUAGAAAACAUG,-6.78,,-7.35,
GGCUAGAACUAGUGGAUCCCCCGGCGCCCGGCGGCUCGAGCCCGGGUAAGUAGACGAAGUCUGCAUGCCGCCGGGCGCCAUGCCUGCAGGUCGACUCUAGAAAACAUG,< -7.76,,-7.06,
GGCUAGAACUAGUGGAUCCCCCGGCGCCCGGCGGCUCGAGCCCGGGUAAGCGUAAGUUGUCUGCAUGCCGCCGGGCGCCAUGCCUGCAGGUCGACUCUAGAAAACAUG,-7.29,,< -9.04,
GGCUAGAACUAGUGGAUCCCCCGGCGCCCGGCGGCUCGAGCCCGGGUAAGUCUAAGGAGUCUGCAUGCCGCCGGGCGCCAUGCCUGCAGGUCGACUCUAGAAAACAUG,< -7.36,,< -7.15,
GGCUAGAACUAGUGGAUCCCCCGGCGCCCGGCGGCUCGAGCCCGGGUAAGAUGAACUAGUCUGCAUGCCGCCGGGCGCCAUGCCUGCAGGUCGACUCUAGAAAACAUG,-6.22,,< -7.33,
GGCUAGAACUAGUGGAUCCCCCGGCGCCCGGCGGCUCGAGCCCGGGUAAGGGGCUGUAGUCUGCAUGCCGCCGGGCGCCAUGCCUGCAGGUCGACUCUAGAAAACAUG,-8.65,,< -7.72,
GGCUAGAACUAGUGGAUCCCCCGGCGCCCGGCGGCUCGAGCCCGGGUAAGAUAACGUAGUCUGCAUGCCGCCGGGCGCCAUGCCUGCAGGUCGACUCUAGAAAACAUG,< -6.53,,< -7.24,
GGCUAGAACUAGUGGAUCCCCCGGCGCCCGGCGGCUCGAGCCCGGGUAAGUUGAUGCAGUCUGCAUGCCGCCGGGCGCCAUGCCUGCAGGUCGACUCUAGAAAACAUG,-8.27,,< -8.17,

# Reformatted: results already given
Sequence	binding signal (log2 enrichment (interaction score)) [1]	binding signal (log2 enrichment (interaction score)) [2]	binding signal (log2 enrichment (interaction score)) [3]	binding signal (log2 enrichment (interaction score)) [4]
GGCUAGAACUAGUGGAUCCCCCGGCGCCCGGCGGCUCGAGCCCGGGUAAGCUGACGUCGUCUGCAUGCCGCCGGGCGCCAUGCCUGCAGGUCGACUCUAGAAAACAUG	-6.25	< -0.35		
GGCUAGAACUAGUGGAUCCCCCGGCGCCCGGCGGCUCGAGCCCGGGUAAGUACUCAUAGUCUGCAUGCCGCCGGGCGCCAUGCCUGCAGGUCGACUCUAGAAAACAUG	-6.07		-7.05	
